Laboratory results as given in publication PMC11201590, “Enhancing Selective Antimicrobial and Antibiofilm Activities of Melittin through 6-Aminohexanoic Acid Substitution” (Biomolecules, 2024).

Tested on: sheep red blood cells (sRBCs)
Assay: Hemolytic activity
Format: cell-based
Details: ratio of HC10 to GM of the MIC

With CC[C@H](C)[C@H](NC(=O)CN)C(=O)NCC(=O)N[C@@H](C)C(=O)N[C@H](C(=O)N[C@@H](CC(C)C)C(=O)N[C@@H](CCCCN)C(=O)N[C@H](C(=O)N[C@@H](CC(C)C)C(=O)N[C@H](C(=O)N[C@H](C(=O)NCC(=O)N[C@@H](CC(C)C)C(=O)N1CCC[C@H]1C(=O)N[C@@H](C)C(=O)N[C@@H](CC(C)C)C(=O)N[C@H](C(=O)N[C@@H](CO)C(=O)N[C@@H](Cc1c[nH]c2ccccc12)C(=O)N[C@H](C(=O)N[C@@H](CCCCN)C(=O)N[C@@H](CCCNC(=N)N)C(=O)N[C@@H](CCCCN)C(=O)N[C@@H](CCCNC(=N)N)C(=O)N[C@@H](CCC(N)=O)C(=O)N[C@@H](CCC(N)=O)C(N)=O)[C@@H](C)CC)[C@@H](C)CC)[C@@H](C)O)[C@@H](C)O)C(C)C)C(C)C [Melittin] the “TI (HC10/GM), therapeutic index” value was 0.19.
